In paper PMC4978524 one finds binding data, which are given here for 4 substances.

Chains of the proteins cited; added tags and fusions are not shown. Residues count along the entry.
UniProt Q24311: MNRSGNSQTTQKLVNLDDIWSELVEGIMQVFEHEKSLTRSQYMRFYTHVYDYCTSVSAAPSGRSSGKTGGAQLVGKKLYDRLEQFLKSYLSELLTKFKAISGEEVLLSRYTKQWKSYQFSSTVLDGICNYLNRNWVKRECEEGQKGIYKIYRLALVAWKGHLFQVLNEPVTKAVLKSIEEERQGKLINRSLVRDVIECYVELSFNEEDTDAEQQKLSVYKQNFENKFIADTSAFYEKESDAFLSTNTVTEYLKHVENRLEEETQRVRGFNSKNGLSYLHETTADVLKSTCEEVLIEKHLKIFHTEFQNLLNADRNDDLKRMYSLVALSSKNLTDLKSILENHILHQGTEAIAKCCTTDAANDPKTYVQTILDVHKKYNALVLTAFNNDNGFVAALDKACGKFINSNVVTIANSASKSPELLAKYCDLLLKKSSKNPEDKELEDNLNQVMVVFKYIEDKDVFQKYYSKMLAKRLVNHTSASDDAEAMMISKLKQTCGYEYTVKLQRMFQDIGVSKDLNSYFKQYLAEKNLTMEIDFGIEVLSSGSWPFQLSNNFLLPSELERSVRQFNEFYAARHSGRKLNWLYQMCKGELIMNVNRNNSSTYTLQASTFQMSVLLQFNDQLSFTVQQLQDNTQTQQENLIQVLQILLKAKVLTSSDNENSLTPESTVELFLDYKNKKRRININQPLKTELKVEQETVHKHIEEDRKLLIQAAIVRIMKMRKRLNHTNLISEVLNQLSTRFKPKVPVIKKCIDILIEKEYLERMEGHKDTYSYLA
UniProt Q9V3Z6: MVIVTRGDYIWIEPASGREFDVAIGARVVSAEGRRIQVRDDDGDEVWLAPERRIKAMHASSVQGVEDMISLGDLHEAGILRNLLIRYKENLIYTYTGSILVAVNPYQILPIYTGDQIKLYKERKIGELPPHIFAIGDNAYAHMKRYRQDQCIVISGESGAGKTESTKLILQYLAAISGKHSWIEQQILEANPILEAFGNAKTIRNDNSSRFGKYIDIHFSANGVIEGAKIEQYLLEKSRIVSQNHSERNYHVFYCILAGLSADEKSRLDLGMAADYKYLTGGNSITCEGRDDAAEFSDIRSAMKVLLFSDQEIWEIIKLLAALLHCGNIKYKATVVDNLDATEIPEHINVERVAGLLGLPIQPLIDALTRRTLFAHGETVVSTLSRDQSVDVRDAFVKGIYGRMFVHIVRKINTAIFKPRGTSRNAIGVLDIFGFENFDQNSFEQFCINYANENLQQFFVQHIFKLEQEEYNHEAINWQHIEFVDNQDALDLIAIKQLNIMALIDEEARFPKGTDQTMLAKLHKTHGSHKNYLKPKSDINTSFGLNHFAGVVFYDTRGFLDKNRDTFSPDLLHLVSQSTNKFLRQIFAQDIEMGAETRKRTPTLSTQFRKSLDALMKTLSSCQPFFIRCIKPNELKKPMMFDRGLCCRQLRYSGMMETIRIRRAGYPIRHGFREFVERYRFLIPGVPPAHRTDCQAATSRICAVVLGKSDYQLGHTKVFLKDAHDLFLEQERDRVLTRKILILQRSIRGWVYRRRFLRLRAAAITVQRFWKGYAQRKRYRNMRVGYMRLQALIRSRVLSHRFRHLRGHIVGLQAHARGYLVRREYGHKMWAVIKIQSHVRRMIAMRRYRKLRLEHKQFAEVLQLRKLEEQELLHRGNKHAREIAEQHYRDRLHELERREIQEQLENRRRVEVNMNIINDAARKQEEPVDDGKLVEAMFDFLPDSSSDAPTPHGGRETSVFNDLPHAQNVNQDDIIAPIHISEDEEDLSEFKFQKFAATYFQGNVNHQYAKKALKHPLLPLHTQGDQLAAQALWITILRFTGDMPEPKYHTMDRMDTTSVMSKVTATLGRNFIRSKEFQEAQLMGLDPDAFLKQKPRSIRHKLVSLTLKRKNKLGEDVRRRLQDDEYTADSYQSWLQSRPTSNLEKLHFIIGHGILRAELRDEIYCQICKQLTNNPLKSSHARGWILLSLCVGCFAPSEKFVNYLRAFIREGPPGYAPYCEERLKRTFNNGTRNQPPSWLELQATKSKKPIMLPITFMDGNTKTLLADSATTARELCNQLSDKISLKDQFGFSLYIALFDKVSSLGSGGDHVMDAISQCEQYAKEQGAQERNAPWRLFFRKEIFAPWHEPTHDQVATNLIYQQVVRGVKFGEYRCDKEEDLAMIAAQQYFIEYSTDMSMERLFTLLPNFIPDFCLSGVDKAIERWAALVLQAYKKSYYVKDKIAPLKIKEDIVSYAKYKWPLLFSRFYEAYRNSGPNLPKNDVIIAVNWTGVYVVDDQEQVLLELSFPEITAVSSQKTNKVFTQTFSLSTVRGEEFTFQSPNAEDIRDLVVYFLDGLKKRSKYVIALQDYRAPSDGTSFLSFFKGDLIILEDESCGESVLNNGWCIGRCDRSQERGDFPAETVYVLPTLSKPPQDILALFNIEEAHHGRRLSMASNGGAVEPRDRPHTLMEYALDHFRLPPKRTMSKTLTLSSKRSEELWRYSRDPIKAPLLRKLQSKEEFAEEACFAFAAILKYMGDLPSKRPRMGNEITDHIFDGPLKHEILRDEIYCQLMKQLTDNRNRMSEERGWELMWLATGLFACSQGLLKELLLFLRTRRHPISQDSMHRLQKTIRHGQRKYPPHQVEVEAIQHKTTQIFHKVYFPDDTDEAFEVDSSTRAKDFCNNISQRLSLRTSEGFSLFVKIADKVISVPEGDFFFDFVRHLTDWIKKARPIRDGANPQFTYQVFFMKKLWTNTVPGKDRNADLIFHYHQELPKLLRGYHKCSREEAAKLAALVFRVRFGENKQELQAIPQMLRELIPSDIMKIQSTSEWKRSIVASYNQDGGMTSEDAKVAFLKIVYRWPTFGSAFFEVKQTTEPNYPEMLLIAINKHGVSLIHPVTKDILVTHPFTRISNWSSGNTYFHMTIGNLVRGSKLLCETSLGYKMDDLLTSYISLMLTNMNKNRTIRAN
UniProt Q9VAF5, residues 29-1706: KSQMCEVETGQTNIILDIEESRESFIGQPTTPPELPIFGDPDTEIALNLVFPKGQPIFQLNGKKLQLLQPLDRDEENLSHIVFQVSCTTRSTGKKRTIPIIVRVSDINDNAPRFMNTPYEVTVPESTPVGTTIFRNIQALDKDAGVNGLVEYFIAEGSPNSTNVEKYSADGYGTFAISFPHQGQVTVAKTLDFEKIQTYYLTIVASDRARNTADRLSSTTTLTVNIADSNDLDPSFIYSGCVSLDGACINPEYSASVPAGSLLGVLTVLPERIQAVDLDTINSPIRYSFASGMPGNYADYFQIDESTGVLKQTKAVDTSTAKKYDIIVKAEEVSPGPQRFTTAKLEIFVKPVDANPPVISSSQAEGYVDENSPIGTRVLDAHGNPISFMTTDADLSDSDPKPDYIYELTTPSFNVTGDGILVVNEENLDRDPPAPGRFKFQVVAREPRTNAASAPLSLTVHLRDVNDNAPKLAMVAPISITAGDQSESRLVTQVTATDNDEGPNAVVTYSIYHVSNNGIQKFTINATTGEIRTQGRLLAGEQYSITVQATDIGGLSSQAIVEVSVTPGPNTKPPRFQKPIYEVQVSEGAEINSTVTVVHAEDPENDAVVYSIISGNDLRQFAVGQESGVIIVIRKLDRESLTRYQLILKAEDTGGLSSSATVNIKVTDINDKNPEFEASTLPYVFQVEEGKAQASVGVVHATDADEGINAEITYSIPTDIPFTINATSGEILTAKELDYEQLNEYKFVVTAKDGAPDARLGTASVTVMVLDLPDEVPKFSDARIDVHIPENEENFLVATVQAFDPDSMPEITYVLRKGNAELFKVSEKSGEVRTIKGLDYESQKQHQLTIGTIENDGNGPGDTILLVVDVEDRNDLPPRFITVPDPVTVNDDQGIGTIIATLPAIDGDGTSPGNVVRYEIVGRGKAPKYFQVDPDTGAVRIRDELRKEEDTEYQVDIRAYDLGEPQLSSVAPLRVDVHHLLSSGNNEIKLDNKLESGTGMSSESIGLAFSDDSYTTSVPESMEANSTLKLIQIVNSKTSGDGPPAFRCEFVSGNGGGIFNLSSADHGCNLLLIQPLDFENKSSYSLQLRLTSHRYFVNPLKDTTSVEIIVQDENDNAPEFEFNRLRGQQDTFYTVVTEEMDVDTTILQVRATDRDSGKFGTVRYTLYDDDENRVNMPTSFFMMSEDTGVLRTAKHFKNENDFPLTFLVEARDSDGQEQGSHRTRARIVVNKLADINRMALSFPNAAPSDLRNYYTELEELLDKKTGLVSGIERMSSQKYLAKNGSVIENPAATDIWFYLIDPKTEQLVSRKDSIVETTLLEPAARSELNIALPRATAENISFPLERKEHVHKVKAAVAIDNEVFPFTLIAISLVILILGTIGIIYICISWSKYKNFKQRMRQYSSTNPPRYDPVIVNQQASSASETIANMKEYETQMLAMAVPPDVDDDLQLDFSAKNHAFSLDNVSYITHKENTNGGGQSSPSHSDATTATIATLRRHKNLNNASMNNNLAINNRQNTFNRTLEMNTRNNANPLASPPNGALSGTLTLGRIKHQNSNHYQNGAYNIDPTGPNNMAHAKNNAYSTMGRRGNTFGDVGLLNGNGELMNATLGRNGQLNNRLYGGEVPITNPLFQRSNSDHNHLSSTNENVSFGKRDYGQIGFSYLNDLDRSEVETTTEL
UniProt Q8VDD5: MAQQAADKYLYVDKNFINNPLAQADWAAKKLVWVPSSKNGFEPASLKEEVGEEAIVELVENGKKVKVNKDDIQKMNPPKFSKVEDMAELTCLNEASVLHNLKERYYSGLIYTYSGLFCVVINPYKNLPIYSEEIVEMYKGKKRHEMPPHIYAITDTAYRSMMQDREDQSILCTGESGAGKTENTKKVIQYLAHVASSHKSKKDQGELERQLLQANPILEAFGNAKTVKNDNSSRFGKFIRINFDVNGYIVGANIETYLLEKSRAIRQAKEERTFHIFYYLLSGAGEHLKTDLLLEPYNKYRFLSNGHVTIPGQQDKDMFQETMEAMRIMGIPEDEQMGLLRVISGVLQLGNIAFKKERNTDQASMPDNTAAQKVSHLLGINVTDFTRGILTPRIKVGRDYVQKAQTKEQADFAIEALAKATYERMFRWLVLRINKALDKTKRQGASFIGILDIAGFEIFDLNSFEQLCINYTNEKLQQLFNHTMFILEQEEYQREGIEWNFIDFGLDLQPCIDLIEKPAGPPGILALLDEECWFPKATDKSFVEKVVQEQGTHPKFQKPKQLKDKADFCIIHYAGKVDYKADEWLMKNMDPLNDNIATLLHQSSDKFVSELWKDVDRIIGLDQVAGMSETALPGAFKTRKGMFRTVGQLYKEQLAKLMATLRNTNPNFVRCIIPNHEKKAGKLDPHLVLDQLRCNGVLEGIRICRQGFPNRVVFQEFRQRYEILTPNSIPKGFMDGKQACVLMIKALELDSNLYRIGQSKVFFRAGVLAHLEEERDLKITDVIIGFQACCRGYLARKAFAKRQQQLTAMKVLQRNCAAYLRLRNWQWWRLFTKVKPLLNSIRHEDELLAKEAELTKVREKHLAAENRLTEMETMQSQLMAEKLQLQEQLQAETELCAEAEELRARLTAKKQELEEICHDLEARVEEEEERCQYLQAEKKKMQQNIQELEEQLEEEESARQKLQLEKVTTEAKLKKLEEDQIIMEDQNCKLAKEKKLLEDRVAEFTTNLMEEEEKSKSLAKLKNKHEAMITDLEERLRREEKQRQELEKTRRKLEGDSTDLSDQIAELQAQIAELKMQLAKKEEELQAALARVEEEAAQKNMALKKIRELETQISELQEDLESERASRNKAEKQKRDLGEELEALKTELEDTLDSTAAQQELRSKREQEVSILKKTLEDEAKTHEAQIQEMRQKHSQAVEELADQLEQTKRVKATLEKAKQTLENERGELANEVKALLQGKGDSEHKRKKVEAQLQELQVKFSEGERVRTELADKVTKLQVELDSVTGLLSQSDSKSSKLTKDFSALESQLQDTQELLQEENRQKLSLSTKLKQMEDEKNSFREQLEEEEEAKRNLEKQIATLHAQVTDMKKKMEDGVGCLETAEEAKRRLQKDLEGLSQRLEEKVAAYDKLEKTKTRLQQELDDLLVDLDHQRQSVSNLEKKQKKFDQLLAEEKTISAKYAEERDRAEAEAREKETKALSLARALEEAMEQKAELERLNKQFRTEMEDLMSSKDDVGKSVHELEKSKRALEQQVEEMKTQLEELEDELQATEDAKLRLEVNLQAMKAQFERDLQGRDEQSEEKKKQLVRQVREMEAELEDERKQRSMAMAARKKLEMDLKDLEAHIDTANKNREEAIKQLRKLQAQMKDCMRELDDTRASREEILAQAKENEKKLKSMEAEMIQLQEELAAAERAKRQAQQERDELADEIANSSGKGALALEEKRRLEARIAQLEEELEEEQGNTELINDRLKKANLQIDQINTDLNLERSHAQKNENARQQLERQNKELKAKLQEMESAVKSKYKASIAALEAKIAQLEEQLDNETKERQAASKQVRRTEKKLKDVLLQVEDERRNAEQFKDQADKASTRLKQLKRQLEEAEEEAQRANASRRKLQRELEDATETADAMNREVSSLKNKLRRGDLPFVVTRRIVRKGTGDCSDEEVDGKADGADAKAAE

In test [1] the target is Cul1-GFP (Drosophila Cullin1, in S2 cells) (Drosophila) (UniProt Q24311). In words: co-IP; S2 cells transfected with GFP-tagged and V5-tagged constructs, lysed 48 hr after transfection (Tris-HCl 25 mM pH 7.5, NaCl 150 mM, NP-40 1%), precipitated with GFP nanobody conjugated beads overnight at 4°C, western blots. In general terms: A western blot detects proteins with antibodies after separation by electrophoresis.

The target of test [2] is MyoVIIa-GFP (Drosophila Myosin VIIa, in S2 cells) (Drosophila) (UniProt Q9V3Z6). The description is as above.
The target in test [3] is HA-Cad99C-V5 fusion protein, full length (Drosophila) (UniProt Q9VAF5). The test can be described thus: co-IP; reciprocal: HA-Cad99C-V5 expressed in S2 cells, anti-HA or anti-V5 immunoprecipitation from lysate, western blots.
Test [4] deals with MyoIIa (mouse, encoded by MYH9) (mouse (endogenous in P5 cochlea)) (UniProt Q8VDD5). In words: co-IP; anti-MyoIIa antibody, P5 mouse cochlear (inner ear) lysate, western blotting.

These are yes or no findings as the source states them, for the method shown. Binding seen in cells or lysates may run through a third protein. Some entries that bind do so weakly or less than the wild type.

In the case of “Cad99C-V5, full length 250 kDa protein (Drosophila homologue of PCDH15) (from UniProt Q9VAF5 29-1706)”, the binding entry in test [1] and in test [2] was “no binding” in each case. With “Cul1-GFP (Drosophila Cullin1, in S2 cells) (from UniProt Q24311 1-774)”, the binding entry in test [3] is recorded as “no binding”. In the case of “MyoVIIa (mouse) (from UniProt P97479 1-2215)”, the binding result in test [4] is on record as “binds”. In the case of “MyoVIIa-GFP (Drosophila Myosin VIIa, in S2 cells) (from UniProt Q9V3Z6 1-2167)”, in test [3], the binding result was “no binding”.
